These are yes or no findings as the source states them, for the method shown. Binding seen in cells or lysates may run through a third protein. Here binding means that the protein was enriched with, or labelled near, the bait; the list need not be complete. A no says only that the protein was not detected with the bait. Blank lines part the entries; values can stand above or below the binder they belong to.
How the values were obtained:
Experiment in all cases: native holdup (nHU) with label-free quantitative mass spectrometry; single-point (~10 μM bait); isolated PDZ domain baits fused to biotinylated MBP on streptavidin resin, biotinylated-His6-MBP as control; total cell extract as analyte (Jurkat, two series on two instruments, the second with six PDZ baits; SNX27_PDZ also with SH-SY5Y); 4°C, 2 hours; apparent affinities; only the target purified
[1] = target: T1, Tax1 binding protein 3 (TAX1BP3) PDZ domain bait (UniProt O14907)
T1 sequence: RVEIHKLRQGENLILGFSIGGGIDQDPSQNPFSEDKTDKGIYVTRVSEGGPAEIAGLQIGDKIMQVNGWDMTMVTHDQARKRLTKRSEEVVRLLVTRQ

Amino acid sequences for entries named in this document (tags omitted). Residues count along the entry.
UniProt Q12959, residues 319-405: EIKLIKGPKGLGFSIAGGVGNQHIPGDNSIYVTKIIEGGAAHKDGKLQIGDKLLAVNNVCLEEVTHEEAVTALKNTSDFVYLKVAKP
SCRIB PDZ_1 domain bait (Q14160, residues 728-815): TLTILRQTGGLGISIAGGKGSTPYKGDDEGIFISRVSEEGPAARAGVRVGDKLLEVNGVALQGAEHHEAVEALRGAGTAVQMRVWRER
SCRIB PDZ_2 domain bait (Q14160, residues 862-950): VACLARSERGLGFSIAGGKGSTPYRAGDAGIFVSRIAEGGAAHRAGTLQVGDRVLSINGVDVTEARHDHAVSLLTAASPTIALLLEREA

[2] = target: discs large MAGUK scaffold protein 1 (DLG1) PDZ_2 domain bait (UniProt Q12959)
[3] = target: SCRIB PDZ_2 domain bait (UniProt Q14160)
[4] = target: SCRIB PDZ_1 domain bait (UniProt Q14160)

binding [1]: no binding (tested: ~10 μM bait)
binding [2]: no binding (tested: ~10 μM bait)
binding [3]: no binding (tested: ~10 μM bait)
binding [4]: no binding (tested: ~10 μM bait)
B1: monocarboxylate transporter 1 (SLC16A1) (protein, UniProt P53985 1-500)
chain: MPPAVGGPVGYTPPDGGWGWAVVIGAFISIGFSYAFPKSITVFFKEIEGIFHATTSEVSWISSIMLAVMYGGGPISSILVNKYGSRIVMIVGGCLSGCGLIAASFCNTVQQLYVCIGVIGGLGLAFNLNPALTMIGKYFYKRRPLANGLAMAGSPVFLCTLAPLNQVFFGIFGWRGSFLILGGLLLNCCVAGALMRPIGPKPTKAGKDKSKASLEKAGKSGVKKDLHDANTDLIGRHPKQEKRSVFQTINQFLDLTLFTHRGFLLYLSGNVIMFFGLFAPLVFLSSYGKSQHYSSEKSAFLLSILAFVDMVARPSMGLVANTKPIRPRIQYFFAASVVANGVCHMLAPLSTTYVGFCVYAGFFGFAFGWLSSVLFETLMDLVGPQRFSSAVGLVTIVECCPVLLGPPLLGRLNDMYGDYKYTYWACGVVLIISGIYLFIGMGINYRLLAKEQKANEQKKESKEEETSIDVAGKPNEVTKAAESPDQKDTDGGPKEEESPV

binding [1]: no binding (tested: ~10 μM bait)
binding [2]: no binding (tested: ~10 μM bait)
binding [3]: no binding (tested: ~10 μM bait)
binding [4]: no binding (tested: ~10 μM bait)
B2: neutral amino acid transporter B(0) (SLC1A5) (protein, UniProt Q15758 1-541)
chain: MVADPPRDSKGLAAAEPTANGGLALASIEDQGAAAGGYCGSRDQVRRCLRANLLVLLTVVAVVAGVALGLGVSGAGGALALGPERLSAFVFPGELLLRLLRMIILPLVVCSLIGGAASLDPGALGRLGAWALLFFLVTTLLASALGVGLALALQPGAASAAINASVGAAGSAENAPSKEVLDSFLDLARNIFPSNLVSAAFRSYSTTYEERNITGTRVKVPVGQEVEGMNILGLVVFAIVFGVALRKLGPEGELLIRFFNSFNEATMVLVSWIMWYAPVGIMFLVAGKIVEMEDVGLLFARLGKYILCCLLGHAIHGLLVLPLIYFLFTRKNPYRFLWGIVTPLATAFGTSSSSATLPLMMKCVEENNGVAKHISRFILPIGATVNMDGAALFQCVAAVFIAQLSQQSLDFVKIITILVTATASSVGAAGIPAGGVLTLAIILEAVNLPVDHISLILAVDWLVDRSCTVLNVEGDALGAGLLQNYVDRTESRSTEPELIQVKSELPLDPLPVPTEEGNPLLKHYRGPAGDATVASEKESVM
